Assay results as given in US12577138B2, “Using Daphnia for bioremediation” (priority 2019, dated 2026).

Tested on: Daphnia magna
Experiment: Removal of pharmaceuticals and pesticides from spiked borehole water by Daphnia magna, daily UPLC/MS over five days

O=C(O)Cc1ccccc1Nc1c(Cl)cccc1Cl [Diclofenac]
reduction in the concentration (Daphnia in the water sample for 3 days): 84% | concentration in water after exposure to Daphnia magna (after 5 days (4 days of the Daphnia being in the water)): 0 µg/L

CC(=O)Nc1ccc(O)cc1 [paracetamol]
concentration as % of the starting concentration (day 3, single genotype, borehole water): 27% | concentration in water after exposure to Daphnia magna (day 3, starting concentration 4000 μg/L, single genotype, borehole water): 2900 µg/L

CCNc1nc(Cl)nc(NC(C)C)n1 [atrazine]
concentration as % of the initial concentration (day 5 / after 5 days): 36%
